The assay addresses glycocalicin, the carbohydrate-rich extracellular portion of the platelet membrane glycoprotein GPIbα (human) (UniProt P07359). The assay is described as follows: binding of whole bacteria to immobilised protein in microtiter wells; glycocalicin coated on wells (1.25 µg/well); bacteria about 2x10^7 per ml in DPBS, 2 h at room temperature, three washes; bound bacteria released by trypsin and counted by plating; percent of input bound; n = 6; only the target purified.

Protein sequences, listed by entry. Tags and fused reporters are not part of them. Residues count along the entry.
UniProt P07359, residues 17-531: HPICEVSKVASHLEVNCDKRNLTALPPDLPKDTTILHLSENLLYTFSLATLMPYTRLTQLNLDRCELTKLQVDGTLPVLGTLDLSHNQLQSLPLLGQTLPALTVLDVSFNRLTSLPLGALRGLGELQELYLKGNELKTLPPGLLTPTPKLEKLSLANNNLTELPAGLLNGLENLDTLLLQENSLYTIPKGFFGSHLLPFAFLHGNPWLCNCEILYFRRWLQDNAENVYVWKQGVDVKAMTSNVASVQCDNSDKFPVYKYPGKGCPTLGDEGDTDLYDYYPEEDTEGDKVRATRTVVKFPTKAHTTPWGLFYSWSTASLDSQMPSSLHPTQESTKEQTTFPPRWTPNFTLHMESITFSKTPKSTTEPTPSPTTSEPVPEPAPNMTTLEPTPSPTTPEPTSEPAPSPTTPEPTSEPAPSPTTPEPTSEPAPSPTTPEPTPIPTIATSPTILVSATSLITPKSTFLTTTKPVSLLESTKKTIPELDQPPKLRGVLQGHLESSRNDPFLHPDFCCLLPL
UniProt Q939N5, residues 86-3041: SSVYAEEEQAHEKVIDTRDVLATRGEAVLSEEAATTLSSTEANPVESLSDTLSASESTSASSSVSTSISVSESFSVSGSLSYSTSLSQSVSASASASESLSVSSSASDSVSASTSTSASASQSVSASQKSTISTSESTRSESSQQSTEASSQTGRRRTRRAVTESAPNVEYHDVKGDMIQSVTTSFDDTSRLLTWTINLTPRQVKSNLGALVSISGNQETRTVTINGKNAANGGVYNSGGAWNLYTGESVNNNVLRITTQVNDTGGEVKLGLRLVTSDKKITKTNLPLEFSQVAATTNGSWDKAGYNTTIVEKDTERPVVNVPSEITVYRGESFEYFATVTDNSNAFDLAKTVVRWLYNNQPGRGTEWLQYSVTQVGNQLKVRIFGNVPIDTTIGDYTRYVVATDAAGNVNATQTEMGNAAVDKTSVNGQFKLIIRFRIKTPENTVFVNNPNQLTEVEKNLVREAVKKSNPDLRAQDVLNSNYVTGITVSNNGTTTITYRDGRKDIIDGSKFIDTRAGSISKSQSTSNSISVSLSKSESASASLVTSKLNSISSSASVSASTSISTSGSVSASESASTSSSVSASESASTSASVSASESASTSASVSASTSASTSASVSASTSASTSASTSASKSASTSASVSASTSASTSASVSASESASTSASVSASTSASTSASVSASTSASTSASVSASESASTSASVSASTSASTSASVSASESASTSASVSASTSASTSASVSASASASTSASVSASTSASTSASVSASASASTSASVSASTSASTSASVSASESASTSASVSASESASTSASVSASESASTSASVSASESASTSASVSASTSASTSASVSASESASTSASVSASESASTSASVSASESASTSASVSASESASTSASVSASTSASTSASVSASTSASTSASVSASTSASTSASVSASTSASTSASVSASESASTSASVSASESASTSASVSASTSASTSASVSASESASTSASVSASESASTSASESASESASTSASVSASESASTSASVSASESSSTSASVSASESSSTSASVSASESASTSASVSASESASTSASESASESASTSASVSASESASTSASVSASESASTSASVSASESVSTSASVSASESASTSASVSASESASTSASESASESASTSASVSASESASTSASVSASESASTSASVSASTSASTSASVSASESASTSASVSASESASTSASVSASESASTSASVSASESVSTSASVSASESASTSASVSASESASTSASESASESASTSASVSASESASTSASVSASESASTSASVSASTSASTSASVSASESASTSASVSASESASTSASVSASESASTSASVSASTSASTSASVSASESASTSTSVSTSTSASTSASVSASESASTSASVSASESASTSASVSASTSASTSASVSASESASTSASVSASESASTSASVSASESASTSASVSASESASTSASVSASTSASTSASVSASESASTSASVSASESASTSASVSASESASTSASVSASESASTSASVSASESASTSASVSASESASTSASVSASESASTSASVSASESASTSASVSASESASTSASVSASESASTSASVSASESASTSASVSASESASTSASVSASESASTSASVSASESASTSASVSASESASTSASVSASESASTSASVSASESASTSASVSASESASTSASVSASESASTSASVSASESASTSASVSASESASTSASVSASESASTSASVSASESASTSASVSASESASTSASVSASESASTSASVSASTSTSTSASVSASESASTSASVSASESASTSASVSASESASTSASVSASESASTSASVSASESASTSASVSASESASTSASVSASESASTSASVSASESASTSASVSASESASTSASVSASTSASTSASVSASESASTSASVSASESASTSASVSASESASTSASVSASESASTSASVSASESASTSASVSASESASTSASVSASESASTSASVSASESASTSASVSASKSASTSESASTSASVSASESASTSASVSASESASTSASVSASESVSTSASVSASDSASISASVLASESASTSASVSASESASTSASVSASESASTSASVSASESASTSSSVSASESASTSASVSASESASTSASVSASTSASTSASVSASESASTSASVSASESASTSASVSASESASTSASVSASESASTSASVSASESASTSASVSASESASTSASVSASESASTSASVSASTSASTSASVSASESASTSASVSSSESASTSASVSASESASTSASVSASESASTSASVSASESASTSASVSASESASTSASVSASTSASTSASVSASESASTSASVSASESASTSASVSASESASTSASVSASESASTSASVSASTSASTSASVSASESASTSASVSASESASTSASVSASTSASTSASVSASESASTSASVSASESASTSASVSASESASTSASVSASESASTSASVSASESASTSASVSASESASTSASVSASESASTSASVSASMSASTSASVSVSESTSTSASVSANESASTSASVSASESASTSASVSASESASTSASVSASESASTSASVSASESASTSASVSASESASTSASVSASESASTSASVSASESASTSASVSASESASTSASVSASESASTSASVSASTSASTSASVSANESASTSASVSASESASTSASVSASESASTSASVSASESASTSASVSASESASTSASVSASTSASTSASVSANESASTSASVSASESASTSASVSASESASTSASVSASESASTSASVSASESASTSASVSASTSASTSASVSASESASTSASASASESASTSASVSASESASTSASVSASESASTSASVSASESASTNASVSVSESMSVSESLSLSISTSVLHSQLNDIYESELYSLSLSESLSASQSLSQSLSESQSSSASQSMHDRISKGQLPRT

Results are given in words; binding and its absence hold for the method and conditions named. Some binding calls cover weakened binding; strength is not graded here.

Consider “GspB of Streptococcus gordonii strain M99, wild type, on the bacterial cell surface (from UniProt Q939N5 86-3041)”, for which the binding result is “binds”.

The values are drawn from publication PMC3131266.
